From patent US12415781B2, “Compounds with biguanidyl radical and uses thereof” (INSTITUT CURIE, priority 2018, dated 2025)
Counter-ions that a name gives are not always drawn.

Tested on: copper uptake protein 1 (Ctr1)
Conditions: MDA-MB-468 cells, 72 h

For CN(C)C(=N)NC(=N)N [metformin, 1,1-Dimethylbiguanide hydrochloride], the “expression of copper uptake protein 1 (Ctr1)” value was “reduced expression”.
